In article PMC8805025:

Tested on: CcNsdD2-C (C-terminal DNA-binding domain of CcNsdD2) (Coprinopsis cinerea AmutBmut (pab1-1))
Assay: EMSA
Conditions: competed by 20-fold cold probe; EMSA: 30 uL, 1x EMSA binding buffer (composition not given), 1.5 ug salmon sperm DNA, 50 ng probe, 4 ug CcNsdD2-C, 37 C 30 min; 5% PAGE in 1x TBE pH 8.3; recombinant protein; label: Cy5; probe letters rebuilt from the primers and the genome

AGCACGTGGTCGAAAGTGGTTACTTTAACTAAATTCAGGGCACCCAAGCCTTGTGTCGATCTCGTGATCATCACACAAAATTCTGACGTCATTAAAAAAGATGTGTCTACATTCGGATTGAATCTTCGCAGCCTCGGAGAGTGTAGTGCGGCTTTCGACCACGTGCT (double strand) [dst1 promoter probe]
binding result: binds

Construct, isoform or probe ends are uncertain for at least one entry.
